# Values from PubChem BioAssay AID1259424 (University of Nebraska Medical Center, 2018).
# Screen: 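Find knockdowns that reproduce the expression shifts seen after KSR1 loss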 (primary screen)
# Cell system: human HCT116 colon cancer cells
# Reagents: siRNA pool against human genes, 50 nM
# Measured: 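Six signature mRNAs by branched-DNA multiplex assay, scaled to two housekeeping genes and non-targeting median, log2; matched to mean KSR1 knockdown profile by Pearson correlation and euclidean distance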
# Direction: mean correlation with KSR1 profile and KSR1 correlation: higher = expression change more like KSR1 knockdown; mean distance from KSR1 profile: higher = expression change less like KSR1 knockdown
# The whole screen tested about 14,000 reagents; shown is a part drawn at random. 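Higher correlation or smaller distance means closer resemblance to KSR1 loss; control wells, including KSR1 knockdowns, recur on many plates.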 A reagent listed more than once was tested more than once; the source does not tell the runs apart. No sequences are given here. The record does not give: the time to read-out.
gene knocked down,mean correlation with KSR1 profile,mean distance from KSR1 profile,"KSR1 correlation, replicate 1","KSR1 correlation, replicate 2","KSR1 correlation, replicate 3"
BHLHE41,0.535,1.8,0.806,0.624,0.0476
POLL,0.674,1.96,0.787,0.624,0.5
C8orf76,0.465,1.55,0.287,0.431,0.29
NPPB,0.682,1.18,0.837,0.729,0.314
ZDHHC16,0.503,1.96,0.191,0.509,0.588
PARS2,-0.872,1.93,-0.593,-0.967,-0.744
KLF12,0.466,1.74,0.645,0.839,0.0182
ADGRB2,0.792,2.45,0.725,0.748,0.855
TMEM234,0.178,1.43,-0.137,0.294,0.175
ZNF23,0.125,1.67,-0.0309,0.314,0.1
AHCYL2,0.0189,1.97,-0.46,0.389,0.0327
NBAS,0.22,2.91,0.183,0.246,0.288
CHD3,0.382,1.41,0.393,0.139,0.567
RAP1GAP,-0.13,2.38,-0.102,0.0973,-0.342
DOLPP1,-0.163,2.64,-0.0682,-0.31,-0.283
UBE2E2,-0.285,2.37,-0.569,-0.322,0.116
UBE2E2,0.349,1.6,0.556,0.261,-0.122
RAC1,0.687,2.28,0.707,0.684,0.279
ARMCX6,-0.19,1.76,-0.188,-0.375,-0.05
PLVAP,0.628,2.73,0.404,0.68,0.816
TRIOBP,-0.616,2.23,-0.548,-0.654,-0.622
STK17B,0.217,1.99,0.367,0.272,0.00967
CNGA1,0.345,2.37,0.295,0.279,0.282
NPFF,-0.227,2.4,-0.239,-0.179,-0.292
ELAVL3,0.79,0.713,0.678,0.855,0.466
SF3B2,-0.58,3.67,-0.602,-0.492,-0.495
SPOCK2,0.45,1.48,0.271,0.325,0.787
GJB6,0.202,2.01,0.193,0.161,0.0456
GABBR1,0.681,1.48,0.631,0.723,0.593
ORAI2,0.652,1.11,0.432,0.668,0.6
GNA14,0.546,2.81,0.682,0.534,0.259
POU3F4,0.311,1.24,0.277,0.124,0.675
XRCC6,0.0341,1.46,0.27,-0.225,-0.556
F5,-0.0731,2.16,0.324,-0.199,-0.341
